PubChem BioAssay AID624297 (National Center for Advancing Translational Sciences (NCATS), 2012)
Screen size: about 340,000 compounds; about 6,200 (1.8%) were called active. The inconclusive results got no clear call from the source; some entries with a clear call stand among them for comparison. Calls follow the shape of the dose curve; as a rule, active = well fitted activation curve with a large enough effect; inconclusive = small, poorly fitted or top-dose-only effect; inactive = no such curve, though single readings can be large or run the other way. Where the call is inconclusive, the potency comes from a doubtful curve fit.
Potency is read from the fitted curve at half-maximal effect.

Test: A quantitative high throughput screen for small molecules that induce DNA re-replication in SW480 colon adenocarcinoma cells. Also: nearly all actives have a fitted effect of over 55% in size. As to re-replication activation: % of control where 0% means no effect.
Conditions: Hoechst DNA content imaging, 48 h; re-replication activation: at 46.1 µM (top of the series) unless noted
In short: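 DNA re-replication was detected as more nuclei of elevated Hoechst intensity after 48 hr exposure to compound (23 nL pinned per well of 250 cells).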
With `O=C(CNc1ccc2ccccc2c1)N/N=C/c1ccc([N+](=O)[O-])o1` the Potency was inconclusive: 23.1 µM [activator, single point]. With `CN1CCN(C(c2ccc(C(F)(F)F)cc2)c2ccc3cccnc3c2O)CC1` (stereo unspecified) the Potency was inconclusive: 6.51 µM [activator, single point]. For `COCC(=O)N/N=C(\C)CC(=O)NCc1ccco1`, the Potency was “inactive”. With `O=C(NC(NC(=S)Nc1ccccc1Cl)C(Cl)(Cl)Cl)c1cccc(Cl)c1` (stereo unspecified) the Potency was inconclusive: 32.6 µM [activator, single point]. In the case of `Cc1nn(CC2CC2)c(=O)n1-c1ccccc1F`, the Potency is reported as inconclusive: 0.0411 µM [activator, partial curve, poor fit]. In the case of `Cc1ccc(C(Sc2ccccc2)C(Cn2cncn2)C(=O)c2ccccc2)cc1` (stereo unspecified), the Potency is reported as inconclusive: 20.6 µM [activator, single point]. For `CNC(=O)C1CN(C(=O)c2cccc(S(=O)(=O)N3c4ccccc4CC3C)c2)c2ccccc2O1` (stereo unspecified), the Potency was inconclusive: 20.6 µM [activator, partial curve, poor fit]. For `Cc1ccc(S(=O)(=O)Nc2ccccc2CNc2ncc(Br)cc2Br)cc1`, the Potency was inconclusive: 11.6 µM [activator, partial curve, poor fit]. In the case of `CC(=O)Nc1ccccc1OCc1nnc(-c2ccc(Cl)cc2)o1`, the Potency is reported as inconclusive: 5.8 µM [activator, single point]. With `COc1ccc(CN(C)C(=O)COC(=O)c2c(-c3ccccc3Cl)noc2C)cc1` the Potency was “inactive”. With `Cc1cccc(NC(=O)CC(C)(C)C)c1` the re-replication activation was inconclusive: 293% [activator]. For `CCn1c(=O)c(C(=O)Nc2nc3ccccc3[nH]2)c(O)c2ccccc21`, the Potency was inconclusive: 18.4 µM [activator, single point]. For `CN1CCN(c2cc(-c3ccccc3)nc3cc(-c4ccc(F)cc4)nn23)CC1`, the Potency was inconclusive: 16.4 µM [activator, single point]. In the case of `COc1cccc(NC(=O)[C@H](Cc2c[nH]c3ccccc23)NC(=O)[C@@H]2Cc3ccccc3CN2)c1`, the Potency is reported as inconclusive: 1.03 µM [activator, full curve, poor fit]. For `Cc1cc(C)n(CCC(=O)N/N=C/c2c(O)ccc3ccccc23)n1`, the Potency was inconclusive: 3.26 µM [activator, partial curve, poor fit]. In the case of `Cc1ccc(C(=O)NCc2ccc3c(c2)OCO3)cc1C`, the Potency is reported as “inactive”. In the case of `O=C(c1ccc(N2CCOCC2)nc1)N1CCOCC1`, the Potency is reported as inconclusive: 23.1 µM [activator, single point]. With `CSc1ncccc1C(=O)OCC(=O)N1CC(=O)Nc2ccccc21` the Potency was “inactive”. In the case of `COc1ccc(CCn2c(=N)c(C(=O)NC3CCCC3)cc3c(=O)n4ccccc4nc32)cc1`, the Potency is reported as active: 23.1 µM. With `CC(=O)N1CCc2cc(S(=O)(=O)NCC(=O)NCc3ccccc3Cl)ccc21` the Potency was inconclusive: 3.66 µM [activator, partial curve, poor fit]. With `COc1cc2ncnc(NCc3cccc(F)c3F)c2cc1OC` the Potency was “inactive”. With `CSc1ccc(C(=O)Nc2cc(S(=O)(=O)N3CCOCC3)ccc2N2CCOCC2)cc1[N+](=O)[O-]` the Potency was “inactive”. With `CC(C)c1ccc(NC(=O)N2CCOCC2)cc1` the Potency was inconclusive: 6.51 µM [activator, partial curve, poor fit]. With `O=C(Cc1ccc(F)cc1)N1CCC(CC2CC(c3ccc(Cl)cc3)=NO2)(C(=O)NCC2CCCCC2)CC1` (stereo unspecified) the Potency was “inactive”. In the case of `COc1ccc(-c2c(C)[nH]n3c(=O)c(Cc4ccccc4)c(C)nc23)cc1OC`, the Potency is reported as inconclusive: 16.4 µM [activator, single point]. For `COC(=O)c1ccc2c(=O)n(Cc3ccc(C(=O)NC(C)C)cc3)c(=S)[nH]c2c1`, the Potency was inconclusive: 29.1 µM [activator, single point]. For `CCN(C[C@H]1N[C@@](CC)(C(=O)OC)[C@H]2C(=O)N(C)C(=O)[C@@H]12)C(=O)COC`, the re-replication activation was inactive: -17.5% [at 9.22 µM]. In the case of `Cc1c(C(=O)N2CCC(C)CC2)oc2ccc3c(c12)C(O)CC1(CCCCC1)O3` (stereo unspecified), the Potency is reported as inconclusive: 29.1 µM [activator, single point]. With `CCOc1ccccc1N1CCN(Cc2ccc(OC)c(OC)c2)CC1` the Potency was “inactive”. In the case of `COc1ccc(C2C3CCCCC3(O)CCN2C(=O)c2cccs2)cc1` (stereo unspecified), the re-replication activation is reported as inconclusive: 48.4% [activator]. With `CCCCc1ccc(NC(=O)CSc2nnc(C)c(=O)n2N)cc1` the Potency was inconclusive: 29.1 µM [activator, partial curve, poor fit]. With `Cc1c(Cl)cccc1-c1ccc(/C=N/n2cnnc2)o1` the Potency was inconclusive: 25.9 µM [activator, single point]. With `O=C(C[C@H]1C[C@H](C(=O)N2CCOCC2)[C@@]2(CCC3CCCC3)c3[nH]c4cc(-c5ccco5)ccc4c3CCN2C1=O)NCc1cccc(C(F)(F)F)c1` the Potency was inconclusive: 18.4 µM [activator, single point]. With `CC(C)n1cnc2c(Nc3cccc(Cl)c3)nc(NCCCO)nc21` the Potency was inconclusive: 23.1 µM [activator, single point]. In the case of `COc1ccc(NS(=O)(=O)c2ccc3nc(COc4ccc(Cl)c(C)c4)[nH]c3c2)cc1`, the Potency is reported as inconclusive: 18.4 µM [activator, partial curve]. In the case of `COc1ccc(C(=O)Oc2cc3c4c(c2)C(C)=CC(C)(C)N4C(=O)C3=O)cc1OC`, the Potency is reported as “inactive”. In the case of `COc1ccc(Cl)cc1Nc1nc(-c2sc(NC(=O)CC(C)C)nc2C)cs1`, the Potency is reported as inconclusive: 6.51 µM [activator, single point]. For `COc1cc(NS(=O)(=O)c2ccc(NC(=S)NC(=O)c3ccc(Br)cc3)cc2)ncn1`, the re-replication activation was inconclusive: 36.8% [activator]. For `O=c1[nH]c(C2CCN(S(=O)(=O)Cc3ccccc3)CC2)nc2c1nnn2Cc1ccccc1Cl`, the Potency was “inactive”. In the case of `N#CC(c1ccc(Cl)cc1)c1ccc2c(C(F)(F)F)cc(C(F)(F)F)nc2n1` (stereo unspecified), the Potency is reported as inconclusive: 8.2 µM [activator, partial curve]. With `C#CCOc1ccc(Cl)cc1/C=C1/C(=O)ON=C1C` the Potency was inconclusive: 11.6 µM [activator, single point]. In the case of `CC1(C)CC(N=c2cc(-c3ccccc3)oc3ccc(Cl)cc23)CC(C)(C)N1`, the Potency is reported as inconclusive: 29.1 µM [activator, single point]. With `COc1cc(C(=O)Oc2c(CN3CCOCC3)cc(Cl)c3cccnc23)cc(OC)c1OC` the Potency was inconclusive: 20.6 µM [activator, single point]. With `COc1ccc(CNc2ccc3c(c2)ncn3C)cc1OC` the Potency was active: 10.3 µM. With `COCC(C)NC(=O)CSc1nc2ccccc2n1CCc1ccccc1` (stereo unspecified) the Potency was inconclusive: 0.0058 µM [activator, full curve, poor fit]. For `NS(=O)(=O)c1ccc(CCNC(=O)c2cc(-c3ccc(Br)cc3)nc3ccccc23)cc1`, the Potency was “inactive”. With `Cc1ccc(NC(=S)NNC(=O)c2ccc(N3CCOCC3)c([N+](=O)[O-])c2)cc1Cl` the Potency was inconclusive: 29.1 µM [activator, single point]. For `FC(F)(F)c1cc(-c2cccs2)nc2cc(-c3ccccc3)nn12`, the Potency was inconclusive: 12.6 µM [activator, partial curve, poor fit]. In the case of `c1ccc(CNc2c(-c3cccc(SC4CCCCC4)c3)nc3ccccn23)cc1`, the Potency is reported as active: 6.51 µM. With `Cc1c(Cl)cccc1NC(=O)NCCCN1CCCC1=O` the Potency was inconclusive: 29.1 µM [activator, single point]. In the case of `CO/N=C(/CS(=O)(=O)c1ccc(Br)cc1)c1ccc(OC)cc1`, the Potency is reported as inconclusive: 18.4 µM [activator, single point]. With `Fc1ccc(-c2nc3ccccn3c2NCc2ccc3c(c2)OCO3)cc1` the Potency was inconclusive: 14.6 µM [activator, partial curve, poor fit]. With `O=C(NCc1ccco1)c1cc2cc3ccc(Cl)cc3nc2o1` the Potency was inconclusive: 31.6 µM [activator, single point]. For `COc1ccccc1N(CC(=O)N/N=C/c1c(O)ccc2ccccc12)S(C)(=O)=O`, the Potency was inconclusive: 6.51 µM [activator, single point]. With `CCCCN1CC(=O)N2[C@H]3c4ccccc4OC[C@@H]3[C@H](c3ccccc3)[C@]2(C)C1=O` the Potency was “inactive”. For `O=C(NCCN1CCOCC1)Nc1ccc(Cl)cc1Cl`, the Potency was inconclusive: 23.1 µM [activator, single point]. For `COc1ccc(-c2nc(-c3cccc(C)c3)no2)cc1OC`, the Potency was “inactive”. With `Cc1cccc(OCC(=O)N2CCN(c3nnc(-c4ccccc4)c4ccccc34)CC2)c1` the Potency was “inactive”. In the case of `O=C(CSc1nc2ccccc2s1)NCCOc1ccccc1`, the Potency is reported as inconclusive: 20.6 µM [activator, partial curve, poor fit]. In the case of `CCC(C)(c1nnnn1-c1c(C)cccc1C)N(N=O)c1cccc(C(F)(F)F)c1` (stereo unspecified), the Potency is reported as inconclusive: 29.1 µM [activator, partial curve, poor fit]. For `Cc1c(C(=O)N2CCCC2)c(S(=O)(=O)NCCc2ccccc2)c(C)n1C`, the Potency was “inactive”. With `Fc1ccccc1CN1CCCC(NC2CCC2)C1` (stereo unspecified) the Potency was inconclusive: 14.6 µM [activator, single point]. For `Cc1nn(CCC(=O)NNC(=S)Nc2ccccc2)c(C)c1Br`, the Potency was inconclusive: 2.06 µM [activator, partial curve, poor fit]. With `O=C(CCCOc1ccc(Cl)cc1Cl)N/N=C/c1ccccc1` the Potency was active: 1.64 µM. For `Cc1cc(Nc2ccc3c(c2)OCCO3)c2cccc(C)c2n1`, the Potency was “inactive”. For `N=c1c(S(=O)(=O)c2ccc(Cl)cc2)cc2c(=O)n3ccccc3nc2n1C1CCCC1`, the Potency was inconclusive: 14.6 µM [activator, partial curve, poor fit].
